Measured values reported in US8524906B2, “Tetrahydrothiazolopyridine inhibitors of phosphatidylinositol 3-kinase” (Vertex Pharmaceuticals Incorporated, priority 2009, dated 2013).
Some of these results come from one statement about several compounds together.

Amino acid sequences for entries named in this document (tags omitted).
UniProt P48736, whole entry, species assumed: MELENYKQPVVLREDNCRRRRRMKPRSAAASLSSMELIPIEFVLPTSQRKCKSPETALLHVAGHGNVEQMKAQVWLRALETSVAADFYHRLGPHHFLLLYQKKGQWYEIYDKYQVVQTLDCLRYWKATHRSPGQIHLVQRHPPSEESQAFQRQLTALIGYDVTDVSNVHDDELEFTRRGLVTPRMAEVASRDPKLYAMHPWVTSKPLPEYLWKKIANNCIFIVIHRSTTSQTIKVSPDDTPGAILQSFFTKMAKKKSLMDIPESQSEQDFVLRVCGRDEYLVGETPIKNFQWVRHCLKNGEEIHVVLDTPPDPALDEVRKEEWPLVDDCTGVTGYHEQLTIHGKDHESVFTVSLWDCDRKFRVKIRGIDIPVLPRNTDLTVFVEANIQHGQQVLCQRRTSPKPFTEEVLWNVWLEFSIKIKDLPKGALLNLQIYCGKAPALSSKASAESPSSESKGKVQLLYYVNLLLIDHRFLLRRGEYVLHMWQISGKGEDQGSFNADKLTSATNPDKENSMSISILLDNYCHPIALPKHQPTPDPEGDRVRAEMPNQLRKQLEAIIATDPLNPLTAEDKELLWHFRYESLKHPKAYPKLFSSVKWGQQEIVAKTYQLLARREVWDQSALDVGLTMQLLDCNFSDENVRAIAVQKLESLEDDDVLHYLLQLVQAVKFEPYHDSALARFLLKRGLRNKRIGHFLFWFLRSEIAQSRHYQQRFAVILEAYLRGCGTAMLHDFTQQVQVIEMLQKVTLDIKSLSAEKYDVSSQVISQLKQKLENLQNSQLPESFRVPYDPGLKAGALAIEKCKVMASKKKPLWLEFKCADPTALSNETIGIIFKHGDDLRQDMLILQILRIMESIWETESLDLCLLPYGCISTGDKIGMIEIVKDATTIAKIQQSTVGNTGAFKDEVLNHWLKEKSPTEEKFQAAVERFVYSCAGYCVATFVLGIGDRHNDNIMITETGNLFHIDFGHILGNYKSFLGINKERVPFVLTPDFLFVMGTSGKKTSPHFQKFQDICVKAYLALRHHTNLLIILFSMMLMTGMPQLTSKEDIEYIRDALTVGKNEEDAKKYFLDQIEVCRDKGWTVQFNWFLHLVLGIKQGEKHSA

molecular target: PI3Kγ (Homo sapiens, UniProt P48736); assay: PI3K Inhibition Assay (33P-ATP, PI(4,5)P2 substrate, filter plate scintillation counting); format: biochemical; details: 3 μM ATP, 30 μM PI(4,5)P2, 2 nM final enzyme, 30 min at 25° C.; competitive tight binding Ki fit
Method: One test well also contained 1.5 μL of DMSO with no compound. […] Using a Titertek Multidrop, 50 μL of Reaction Mix [100 mM HEPES pH 7.5, 50 mM NaCl, 10 mM DTT, 0.2 mg/mL BSA, 60 μM phosphatidylinositol(4,5)-bisphosphate diC16 (PI(4,5)P2; Avanti Polar Lipids, Cat. No. 840046P) and PI3K isoform of interest (see Table 3 for isoform concentrations)] was added to each well. To initiate the reaction, 50 μL of ATP Mix [20 mM MgCl2, 6 μM ATP (100 μCi/μmole ^33P-ATP)] was added each well, followed by incubating the wells for 30 min. at 25° C. Final concentrations in each well were 50 mM HEPES 7.5, 10 mM MgCl2, 25 mM NaCl, 5 mM DTT, 0.1 mg/mL BSA, 30 μM PI(4,5)P2, 3 μM ATP, and the PI3K isoform of interest (see Table 3). Final compound concentrations in each well ranged from 10 μM to 1 nM.
After incubation, the reactions in each well were quenched by addition of 50 μL of stop solution [30% TCA/Water, 10 mM ATP]. […] 50 μL of scintillation fluid was added to each well and the plate read on a Perkin-Elmer TopCount™ NXT liquid scintillation counter to obtain ^33P-counts representing inhibition values.
The value for the background well was subtracted from the value obtained for each test well and the data were fit to the competitive tight binding Ki equation described by Morrison and Stone, Comments Mol. Cell Biophys.

Ki, < 1000 nM:
COc1cc(N2CCc3nc(NC(=O)C4CCN(C(C)=O)CC4)sc3C2)cnc1Cl [Compound 46]
COc1cc(N2CCc3nc(NC(=O)N4CCOCC4)sc3C2)cnc1Cl [Compound 55]
CCOC(=O)CCCNC(=O)Nc1nc2c(s1)CN(c1cnc(Cl)c(OC)c1)CC2 [Compound 34]
COc1cc(N2CCc3nc(NC(C)=O)sc3C2)ccc1Cl [Compound 30]
CCCOCCNC(=O)Nc1nc2c(s1)CN(c1cncc(C(F)(F)F)c1)CC2 [Compound 12]
CC(=O)Nc1nc2c(s1)CN(c1cncc(Cl)n1)CC2 [Compound 2]
COc1cc(N2CCc3nc(NC(=O)CCNC(C)=O)sc3C2)cnc1Cl [Compound 44]
COCC(=O)Nc1nc2c(s1)CN(c1cncc(OC)c1)CC2 [Compound 4]
COc1cc(N2CCc3nc(NC(=O)CCNC(=O)c4ccccn4)sc3C2)cnc1OC [Compound 32]
COc1cc(N2CCc3nc(NC(=O)CCNC(=O)c4ccccn4)sc3C2)ccc1Cl [Compound 31]
COc1cc(N2CCc3nc(NC(=O)N4CCCCC4)sc3C2)cnc1Cl [Compound 56]
CONC(=O)Nc1nc2c(s1)CN(c1cnc(OC)c(OC)c1)CC2 [Compound 20]
COc1cc(N2CCc3nc(NC(=O)N4CC(OC)C4)sc3C2)cnc1Cl [Compound 51]
COc1cc(N2CCc3nc(NC(=O)C[C@@H]4CCCN4)sc3C2)cnc1Cl [Compound 53]
COc1cc(N2CCc3nc(NC(=O)[C@H]4CCN(C(C)=O)C4)sc3C2)cnc1Cl [Compound 47]
COc1cncc(N2CCc3nc(NC(C)=O)sc3C2=O)c1 [Compound 22]
COc1ccc(N2CCc3nc(NC(=O)CCNC(=O)c4ccccn4)sc3C2)cc1OC [Compound 28]
COc1cc(N2CCc3nc(NC(=O)N(C)CCOCC4CC4)sc3C2)cnc1Cl [Compound 59]
COCC(=O)Nc1nc2c(s1)CN(c1cncc(C(F)(F)F)c1)CC2 [Compound 8]
COCCC(=O)Nc1nc2c(s1)CN(c1cnc(Cl)c(OC)c1)CC2 [Compound 42]
CCNC(=O)Nc1nc2c(s1)CN(c1cnc(OC)c(OC)c1)CC2 [Compound 10]
COc1cc(N2CCc3nc(NC(=O)C4CN(C(C)=O)C4)sc3C2)cnc1Cl [Compound 49]
COc1cc(N2CCc3nc(NC(=O)N4CCCC4)sc3C2)cnc1Cl [Compound 57]
CC(=O)Nc1nc2c(s1)CN(c1cncc(C(F)(F)F)n1)CC2 [Compound 17]
CCOC(=O)CCNC(=O)Nc1nc2c(s1)CN(c1cnc(Cl)c(OC)c1)CC2 [Compound 52]
COc1cc(N2CCc3nc(NC(=O)CNC(=O)c4ccccn4)sc3C2)cnc1OC [Compound 33]
COc1cc(N2CCc3nc(NC=O)sc3C2)cnc1OC [Compound 15]
CCOCCCNC(=O)Nc1nc2c(s1)CN(c1cnc(Cl)c(OC)c1)CC2 [Compound 39]
COc1cc(N2CCc3nc(NC(=O)NCCc4cn(CCF)cn4)sc3C2)cnc1Cl [Compound 38]
COCCCC(=O)Nc1nc2c(s1)CN(c1cnc(Cl)c(OC)c1)CC2 [Compound 43]
COc1cccc(N2CCc3nc(NC(C)=O)sc3C2)c1 [Compound 29]
COc1cncc(N2CCc3nc(NC(=O)N4CCC4)sc3C2)c1 [Compound 13]
COc1cc(N2CCc3nc(NC(=O)NCCCN(C)C)sc3C2)cnc1Cl [Compound 37]
COCCNC(=O)Nc1nc2c(s1)CN(c1cnc(Cl)c(OC)c1)CC2 [Compound 35]
COc1cc(N2CCc3nc(NC(=O)CC4CCNCC4)sc3C2)cnc1Cl [Compound 40]
COc1cc(N2CCc3nc(NC(=O)CC4CCN(C(C)=O)CC4)sc3C2)cnc1Cl [Compound 45]
CCOCCN(C)C(=O)Nc1nc2c(s1)CN(c1cnc(Cl)c(OC)c1)CC2 [Compound 58]
CCCOCCNC(=O)Nc1nc2c(s1)CN(c1cnc(OC)c(OC)c1)CC2 [Compound 16]
COc1cc(N2CCc3nc(NC(=O)[C@@H]4CCN(C(C)=O)C4)sc3C2)cnc1Cl [Compound 48]
CCNC(=O)Nc1nc2c(s1)CN(c1cncc(C(F)(F)F)c1)CC2 [Compound 6]
COc1cc(N2CCc3nc(NC(=O)NCCCO)sc3C2)cnc1Cl [Compound 50]
COc1ccc(N2CCc3nc(NC(C)=O)sc3C2)cc1OC [Compound 21]
CC(=O)Nc1nc2c(s1)CN(c1cnccn1)CC2 [Compound 1, N-(5-(pyrazin-2-yl)-4,5,6,7-tetrahydrothiazolo[5,4-c]pyridin-2-yl)acetamide]
COc1ncc(N2CCc3nc(NC(C)=O)sc3C2)nc1OC [Compound 14, N-(4,5,6,7-tetrahydro-5-(5,6-dimethoxypyrazin-2-yl)thiazolo[5,4-c]pyridin-2-yl)acetamide]
CC(=O)Nc1nc2c(s1)CN(c1cncc(C(F)(F)F)c1)CC2 [Compound 7]
COc1cc(N2CCc3nc(NC(=O)C[C@@H]4CCCN4C(C)=O)sc3C2)cnc1Cl [Compound 54]
COc1cncc(N2CCc3nc(Nc4cnccn4)sc3C2)c1 [Compound 18, 4,5,6,7-tetrahydro-5-(5-methoxypyridin-3-yl)-N-(pyrazin-2-yl)thiazolo[5,4-c]pyridin-2-amine]
